Assay results as given in article PMC7363444.
Results are given in words; binding and its absence hold for the method and conditions named. In cells and extracts the contact can be indirect. Some results given as binding are weak or reduced against the parent protein; the word gives no strength. Where a sequence is shown, tags or fusion partners need not be part of it.

Amino acid sequences for entries named in this document (tags omitted).
UniProt P21333: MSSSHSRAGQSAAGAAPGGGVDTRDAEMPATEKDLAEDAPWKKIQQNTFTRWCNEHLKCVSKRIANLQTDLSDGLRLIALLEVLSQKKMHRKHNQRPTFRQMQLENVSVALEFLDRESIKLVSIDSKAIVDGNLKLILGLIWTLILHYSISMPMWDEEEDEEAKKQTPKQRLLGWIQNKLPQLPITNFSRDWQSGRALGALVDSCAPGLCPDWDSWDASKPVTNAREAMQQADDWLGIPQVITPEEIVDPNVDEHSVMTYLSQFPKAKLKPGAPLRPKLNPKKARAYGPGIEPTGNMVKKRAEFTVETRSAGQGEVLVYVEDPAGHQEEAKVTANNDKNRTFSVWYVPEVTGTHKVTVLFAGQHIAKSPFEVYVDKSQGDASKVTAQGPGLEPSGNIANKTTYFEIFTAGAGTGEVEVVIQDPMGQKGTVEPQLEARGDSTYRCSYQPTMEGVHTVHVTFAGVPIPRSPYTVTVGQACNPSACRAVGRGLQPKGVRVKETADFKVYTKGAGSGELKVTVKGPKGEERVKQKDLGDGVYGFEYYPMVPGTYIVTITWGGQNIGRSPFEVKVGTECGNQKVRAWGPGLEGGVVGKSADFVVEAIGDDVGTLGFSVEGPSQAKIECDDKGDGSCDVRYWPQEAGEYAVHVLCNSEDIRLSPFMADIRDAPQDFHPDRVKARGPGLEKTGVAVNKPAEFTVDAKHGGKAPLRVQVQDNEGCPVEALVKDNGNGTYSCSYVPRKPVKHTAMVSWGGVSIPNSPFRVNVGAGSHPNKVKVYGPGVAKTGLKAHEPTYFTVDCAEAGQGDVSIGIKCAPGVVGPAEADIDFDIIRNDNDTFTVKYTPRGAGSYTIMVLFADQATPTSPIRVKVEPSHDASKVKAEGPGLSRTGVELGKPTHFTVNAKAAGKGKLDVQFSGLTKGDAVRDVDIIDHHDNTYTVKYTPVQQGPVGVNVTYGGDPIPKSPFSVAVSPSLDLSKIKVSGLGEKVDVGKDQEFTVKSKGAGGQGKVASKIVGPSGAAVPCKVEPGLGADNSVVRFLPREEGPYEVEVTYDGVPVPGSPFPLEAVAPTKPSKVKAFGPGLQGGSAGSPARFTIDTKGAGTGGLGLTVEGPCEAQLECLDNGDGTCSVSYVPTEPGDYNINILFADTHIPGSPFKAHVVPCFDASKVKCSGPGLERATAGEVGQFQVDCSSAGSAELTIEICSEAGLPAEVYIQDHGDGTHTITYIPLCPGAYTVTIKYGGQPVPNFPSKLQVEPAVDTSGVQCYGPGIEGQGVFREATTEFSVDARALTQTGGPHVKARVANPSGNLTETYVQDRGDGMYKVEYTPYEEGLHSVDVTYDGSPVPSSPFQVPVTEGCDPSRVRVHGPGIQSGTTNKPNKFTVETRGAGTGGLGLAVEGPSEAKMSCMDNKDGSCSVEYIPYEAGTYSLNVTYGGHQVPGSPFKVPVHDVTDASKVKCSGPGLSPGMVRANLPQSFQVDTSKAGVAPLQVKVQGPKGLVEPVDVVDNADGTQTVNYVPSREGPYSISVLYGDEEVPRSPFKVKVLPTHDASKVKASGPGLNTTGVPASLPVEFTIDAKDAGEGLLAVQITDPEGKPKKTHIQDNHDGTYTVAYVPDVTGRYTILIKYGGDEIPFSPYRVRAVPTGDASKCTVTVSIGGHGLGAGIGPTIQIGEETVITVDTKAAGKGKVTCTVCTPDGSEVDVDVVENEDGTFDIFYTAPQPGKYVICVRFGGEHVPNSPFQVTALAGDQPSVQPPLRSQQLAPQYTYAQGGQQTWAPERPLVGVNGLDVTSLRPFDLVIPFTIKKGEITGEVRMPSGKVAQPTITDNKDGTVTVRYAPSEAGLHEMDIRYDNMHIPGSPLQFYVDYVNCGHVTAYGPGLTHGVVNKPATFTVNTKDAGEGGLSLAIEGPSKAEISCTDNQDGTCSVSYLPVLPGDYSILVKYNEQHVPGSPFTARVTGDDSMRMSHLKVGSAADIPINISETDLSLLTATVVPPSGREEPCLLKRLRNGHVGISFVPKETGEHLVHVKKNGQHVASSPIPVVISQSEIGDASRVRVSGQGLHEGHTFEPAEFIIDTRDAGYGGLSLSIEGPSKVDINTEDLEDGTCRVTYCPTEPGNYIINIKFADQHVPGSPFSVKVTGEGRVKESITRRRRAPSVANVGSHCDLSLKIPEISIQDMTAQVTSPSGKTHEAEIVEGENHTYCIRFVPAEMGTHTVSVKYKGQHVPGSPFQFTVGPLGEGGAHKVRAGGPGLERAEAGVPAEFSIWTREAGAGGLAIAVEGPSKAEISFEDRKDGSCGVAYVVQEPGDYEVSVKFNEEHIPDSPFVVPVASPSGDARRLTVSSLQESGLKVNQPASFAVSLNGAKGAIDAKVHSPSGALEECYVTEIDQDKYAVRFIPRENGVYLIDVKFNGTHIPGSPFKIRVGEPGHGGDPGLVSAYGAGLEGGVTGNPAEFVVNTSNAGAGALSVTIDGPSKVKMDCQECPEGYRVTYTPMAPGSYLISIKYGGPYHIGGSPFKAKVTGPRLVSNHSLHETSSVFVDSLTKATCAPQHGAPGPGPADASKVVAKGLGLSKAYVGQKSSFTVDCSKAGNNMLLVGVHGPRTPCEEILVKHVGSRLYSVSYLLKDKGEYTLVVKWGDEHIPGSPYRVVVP

Target: T1, LUZP1-YFP (human) (UniProt Q86V48)
T1 sequence: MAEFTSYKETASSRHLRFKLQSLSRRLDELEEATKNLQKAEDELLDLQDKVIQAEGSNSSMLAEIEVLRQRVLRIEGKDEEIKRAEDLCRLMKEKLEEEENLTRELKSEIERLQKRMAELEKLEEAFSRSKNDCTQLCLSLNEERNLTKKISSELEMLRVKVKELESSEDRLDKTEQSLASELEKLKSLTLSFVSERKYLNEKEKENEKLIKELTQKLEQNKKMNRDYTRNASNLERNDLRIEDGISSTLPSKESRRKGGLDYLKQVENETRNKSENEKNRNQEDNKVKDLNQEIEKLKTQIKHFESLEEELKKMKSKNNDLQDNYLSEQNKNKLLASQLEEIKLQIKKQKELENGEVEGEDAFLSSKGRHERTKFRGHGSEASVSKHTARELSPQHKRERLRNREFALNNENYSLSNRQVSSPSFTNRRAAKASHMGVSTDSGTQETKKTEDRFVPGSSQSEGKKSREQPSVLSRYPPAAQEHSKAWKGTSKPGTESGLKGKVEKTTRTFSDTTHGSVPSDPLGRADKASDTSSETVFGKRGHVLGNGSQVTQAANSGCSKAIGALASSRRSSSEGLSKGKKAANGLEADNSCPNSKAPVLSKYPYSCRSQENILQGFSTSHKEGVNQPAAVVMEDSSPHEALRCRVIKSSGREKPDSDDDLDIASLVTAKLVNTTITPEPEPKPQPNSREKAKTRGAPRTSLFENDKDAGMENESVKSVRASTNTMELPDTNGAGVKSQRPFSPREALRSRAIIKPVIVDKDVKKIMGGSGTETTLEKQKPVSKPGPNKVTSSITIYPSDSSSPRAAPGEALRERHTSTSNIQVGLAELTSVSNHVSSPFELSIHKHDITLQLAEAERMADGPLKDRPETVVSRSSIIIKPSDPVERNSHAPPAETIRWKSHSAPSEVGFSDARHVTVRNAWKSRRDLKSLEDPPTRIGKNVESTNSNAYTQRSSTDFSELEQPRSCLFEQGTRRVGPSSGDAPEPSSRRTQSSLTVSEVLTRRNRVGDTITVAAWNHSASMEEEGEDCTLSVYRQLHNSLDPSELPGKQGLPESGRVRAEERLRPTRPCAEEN
Assay: pull-down; GFP-Trap resin on lysates of transfected HEK 293FT cells (WT or 293^335; SALL1^275-YFP with or without co-expressed SALL1^FL-2xHA); 4 °C, lysis 25 mM Tris-HCl pH 7.5, 150 mM NaCl, 1 mM EDTA, 1% NP-40, 0.5% Triton X-100, 5% glycerol; washes with 300 mM NaCl; western blot

binding: binds
Substance: filamin A (endogenous) (from UniProt P21333 1-2647)
